# Test results: patent publication US20060216292A1
# B1: LAPTM4B (protein)
# chain: MVNYAWAGRSQRKLWWRSVAVLTCKSVVRPGYRGGLQARRSTLLKTCARARATAPGAMKMVAPWTRFYSNSCCLCCHVRTGTILLGVWYLIINAVVLLILLSALADPDQYNFSSSELGGDFEFMDDANMCIAIAISLLMILICAMATYGAYKQRAAWIIPFFCYQIFDFALNMLVAITVLIYPNSIQEYIRQLPPNFPYRDDVMSVNPTCLVLIILLFISIILTFKGYLISCVWNCYRYINGRNSSDVLVYVTSNDTTVLLPPYDDATVNGAAKEPPPPYVSA
# B2: ITM2C (protein)
# chain: MVKISFQPAVAGIKGDKADKASASAPAPASATEILLTPAREEQPPQHRSKRGGSVGGVCYLSMGMVVLLMGLVFASVYIYRYFFLAQLARDNFFRCGVLYEDSLSSQVRTQMELEEDVKIYLDENYERINVPVPQFGGGDPADIIHDFQRGLTAYHDISLDKCYVIELNTTIVLPPRNFWELLMNVKRGTYLPQTYIIQEEMVVTEHVSDKEALGSFIYHLCNGKDTYRLRRRATRRRINKRGAKNCNAIRHFENTFVVETLICGVV
# B3: calsyntenin 1 (SEQ ID No:6) (protein)
# chain: ARVNKHKPWLEPTYHGIVTENDNTVLLDPPLIALDKDAPLRFAGEICGFKIHGQNVPFDAVVVDKSTGEGVIRSKEKLDCELQKDYSFTIQAYDCGKGPDGTNVKKSHKATVHIQVNDVNEYAPVFKEKSYKATVIEGKQYDSILRVEAVDADCSPQFSQICSYEIITPDVPFTVDKDGYIKNTEKLNYGKEHQYKLTVTAYDCGKKRATEDVLVKISIKPTCTPGWQGWNNRIEYEPGTGALAVFPNIHLETCDEPVASVQATVELETSHIGKGCDRDTYSEKSLHRLCGAAAGTAELLPSPSGSLNWTMGLPTDNGHDSDQVFEFNGTQAVRIPDGVVSVSPKEPFTISVWMRHGPFGRKKETILCSSDKTDMNRHHYSLYVHGCRLIFLFRQDPSEEKKYRPAEFHWKLNQVCDEEWHHYVLNVEFPSVTLYADGTSHEPFSVTEDYPLHPSKIETQLVVGACWQEFSGVENDNETEPVTVACAGGDLHMTQFFRGNLAGLTLRSGKLADKKVIDCLYTCKEGLDLQVLEDSGRGVQIQAHRSQLVLTLEGEDLGELDKAMQHISYLNSRQFPTPGIRRLKITSTIKCFNEATCISVPPVDGYVMVLQPEEPKISLSGVHHFARAASEFESSEGVFLFPELRIISTITREVEPEGDGAEDPTVQESLVSEEIVHDLDTCEVTVEGEELNHEQESLEVDMARLQQKGIEVSSSELGMTFTGVDTMASYEEVLHLLRYRNWHARSLLDRKFKLICSELNGRYISNEFKVEVNVIHTANPMEHANHMAAQPQFVHPEHRSFVDLSGHNLANPHPFAVVHSTATVVIVVCVSSLVFMIILGVFRIRAAHRRTMRDQDTGKENEMDWDDSALTITVNPMETYEDQHSSEEEEEEEEEEESEDGEEEDDITSAESESSEEEEGEQGDPQNATRQQQLEWDDSTLSY
# B4: Neurotrypsin (SEQ ID No:19) (enzyme)
# chain: FDSVLNDSLHHSHRHSPPAGPHYPYYLPTQQRPPRTRPPPPLPRFPRPPRALPAQRPHALQAGHTPRPHPWGCPAGEPWVSVTDFGAPCLRWAEVPPFLERSPPASWAQLRGQRHNFCRSPDGAGRPWCFYGDARGKVDWGYCDCRHGSVRLRGGKNEFEGTVEVYASGVWGTVCSSHWDDSDASVICHQLQLGGKGIAKQTPFSGLGLIPIYWSNVRCRGDEENILLCEKDIWQGGVCPQKMAAAVTCSFSHGPTFPIIRLAGGSSVHEGRVELYHAGQWGTVCDDQWDDADAEVICRQLGLSGIAKAWHQAYFGEGSGPVMLDEVRCTGNELSIEQCPKSSWGEHNCGHKEDAGVSCTPLTDGVIRLAGGKGSHEGRLEVYYRGQWGTVCDDGWTELNTYVVCRQLGFKYGKQASANHFEESTGPIWLDDVSCSGKETRFLQCSRRQWGRHDCSHREDVSIACYPGGEGHRLSLGFPVRLMDGENKKEGRVEVFINGQWGTICDDGWTDKDAAVICRQLGYKGPARARTMAYFGEGKGPIHVDNVKCTGNERSLADCIKQDIGRHNCRHSEDAGVICDYFGKKASGNSNKESLSSVCGLRLLHRRQKRIIGGKNSLRGGWPWQVSLRLKSSHGDGRLLCGATLLSSCWVLTAAHCFKRYGNSTRSYAVRVGDYHTLVPEEFEEEIGVQQIVIHREYRPDRSDYDIALVRLQGPEEQCARFSSHVLPACLPLWRERPQKTASNCYITGWGDTGRAYSRTLQQAAIPLLPKRFCEERYKGRFTGRMLCAGNLHEHKRVDSCQGDSGGPLMCERPGESWVVYGVTSWGYGCGVKDSPGVYTKVSAFVPWIKSVTKL
# B5: GPR49 (receptor)
# chain: GSSPRSGVLLRGCPTHCHCEPDGRMLLRVDCSDLGLSELPSNLSVFTSYLDLSMNNISQLLPNPLPSLRFLEELRLAGNALTYIPKGAFTGLYSLKVLMLQNNQLRHVPTEALQNLRSLQSLRLDANHISYVPPSCFSGLHSLRHLWLDDNALTEIPVQAFRSLSALQAMTLALNKIHHIPDYAFGNLSSLVVLHLHNNRIHSLGKKCFDGLHSLETLDLNYNNLDEFPTAIRTLSNLKELGFHSNNIRSIPEKAFVGNPSLITIHFYDNPIQFVGRSAFQHLPELRTLTLNGASQITEFPDLTGTANLESLTLTGAQISSLPQTVCNQLPNLQVLDLSYNLLEDLPSFSVCQKLQKIDLRHNEIYEIKVDTFQQLLSLRSLNLAWNKIAIIHPNAFSTLPSLIKLDLSSNLLSSFPITGLHGLTHLKLTGNHALQSLISSENFPELKVIEMPYAYQCCAFGVCENAYKISNQWNKGDNSSMDDLHKKDAGMFQAQDERDLEDFLLDFEEDLKALHSVQCSPSPGPFKPCEHLLDGWLIRIGVWTIAVLALTCNALVTSTVFRSPLYISPIKLLIGVIAAVNMLTGVSSAVLAGVDAFTFGSFARHGAWWENGVGCHVIGFLSIFASESSVFLLTLAALERGFSVKYSAKFETKAPFSSLKVIILLCALLALTMAAVPLLGGSKYGASPLCLPLPFGEPSTMGYMVALILLNSLCFLMMTIAYTKLYCNLDKGDLENIWDCSMVKHIALLLFTNCILNCPVAFLSFSSLINLTFISPEVIKFILLVVVPLPACLNPLLYILFNPHFKEDLVSLRKQTYVWTRSKHPSLMSINSDDVEKQSCDSTQALVTFTSSSITYDLPPSSVPSPAYPVTESCHLSSVAFVPCL
# B6: RetSDR2 (enzyme)
# chain: ESFVKLFIPKRRKSVTGEIVLITGAGHGIGRLTAYEFAKLKSKLVLWDINKHGLEETAAKCKGLGAKVHTFVVDCSNREDIYSSAKKVKAEIGDVSILVNNAGVVYTSDLFATQDPQIEKTFEVNVLAHFWTTKAFLPAMTKNNHGHIVTVASAAGHVSVPFLLAYCSSKFAAVGFHKTLTDELAALQITGVKTTCLCPNFVNTGFIKNPSTSLGPTLEPEEVVNRLMHGILTEQKMIFIPSSIAFLTTLERILPERFLAVLKRKISVKFDAVIGYKMKAQ
# B7: Delta-6 fatty acid desaturase (FADS2) (enzyme)
# chain: MGKGGNQGEGAAEREVSVPTFSWEEIQKHNLRTDRWLVIDRKVYNITKWSIQHPGGQRVIGHYAGEDATDAFRAFHPDLEFVGKFLKPLLIGELAPEEPSQDHGKNSKITEDFRALRKTAEDMNLFKTNHVFFLLLLAHIIALESIAWFTVFYFGNGWIPTLITAFVLATSQAQAGWLQHDYGHLSVYRKPKWNHLVHKFVIGHLKGASANWWNHRHFQHHAKPNIFHKDPDVNMLHVFVLGEWQPIEYGKKKLKYLPYNHQHEYFFLIGPPLLIPMYFQYQIIMTMIVHKNWVDLAWAVSYYIRFFITYIPFYGILGALLFLNFIRFLESHWFVWVTQMNHIVMEIDQEAYRDWFSSQLTATCNVEQSFFNDWFSGHLNFQIEHHLFPTMPRHNLHKIAPLVKSLCAKHGIEYQEKPLLRALLDIIRSLKKSGKLWLDAYLHK
# B8: FADS2 (delta-6-desaturase) (enzyme)
# chain: B7 chain
# B9: DSCD75 (protein)
# chain: LLDVWYLVRLPCAVLRARLLQPRVRDLLAEQRFPGRVLPSDLDLLLHMNNARYLREADFARVAHLTRCGVLGALRELRAHTVLAASCARHRRSLRLLEPFEVRTRLLGWDDRAFYLEARFVSLRDGFVCALLRFRQHLLGTSPERVVQHLCQRRVEPPELPADLQHWISYNEASSQLLRMESGLSDVTKDQ
# B10: PTK7 (SEQ ID No:44) (receptor)
# chain: AIVFIKQPSSQDALQGRRALLRCEVEAPGPVHVYWLLDGAPVQDTERRFAQGSSLSFAAVDRLQDSGTFQCVARDDVTGEEARSANASFNIKWIEAGPVVLKHPASEAEIQPQTQVTLRCHIDGHPRPTYQWFRDGTPLSDGQSNHTVSSKERNLTLRPAGPEHSGLYSCCAHSAFGQACSSQNFTLSIADESFARVVLAPQDVVVARYEEAMFHCQFSAQPPPSLQWLFEDETPITNRSRPPHLRRATVFANGSLLLTQVRPRNAGIYRCIGQGQRGPPIILEATLHLAEIEDMPLFEPRVFTAGSEERVTCLPPKGLPEPSVWWEHAGVRLPTHGRVYQKGHELVLANIAESDAGVYTCHAANLAGQRRQDVNITVATVPSWLKKPQDSQLEEGKPGYLDCLTQATPKPTVVWYRNQMLISEDSRFEVFKNGTLRINSVEVYDGTWYRCMSSTPAGSIEAQARVQVLEKLKFTPPPQPQQCMEFDKEATVPCSATGREKPTIKWERADGSSLPEWVTDNAGTLHFARVTRDDAGNYTCIASNGPQGQIRAHVQLTVAVFITFKVEPERTTVYQGHTALLQCEAQGDPKPLIQWKGKDRILDPTKLGPRMHIFQNGSLVIHDVAPEDSGRYTCIAGNSCNIKHTEAPLYVVDKPVPEESEGPGSPPPYKMIQTIGLSVGAAVAYIIAVLGLMFYCKKRCKAKRLQKQPEGEEPEMECLNGGPLQNGQPSAEIQEEVALTSLGSGPAATNKRHSTSDKMHFPRSSLQPITTLGKSEFGEVFLAKAQGLEEGVAETLVLVKSLQSKDEQQQLDFRRELEMFGKLNHANVVRLLGLCREAEPHYMVLEYVDLGDLKQFLRISKSKDEKLKSQPLSTKQKVALCTQVALGMEHLSNNRFVHKDLAARNCLVSAQRQVKVSALGLSKDVYNSEYYHFRQAWVPLRWMSPEAILEGDFSTKSDVWAFGVLMWEVFTHGEMPHGGQADDEVLADLQAGKARLPQPEGCPSKLYRLMQRCWALSPKDRPSFSEIASALGDSTVDSKP
# B11: TMP21 (protein)
# chain: ISFHLPINSRKCLREEIHKDLLVTGAYEISDQSGGAGGLRSHLKITDSAGHILYSKEDATKGKFAFTTEDYDMFEVCFESKGTGRIPDQLVILDMKHGVEAKNYEEIAKVEKLKPLEVELRRLEDLSESIVNDFAYMKKREEEMRDTNESTNTRVLYFSIFSMFCLIGLATWQVFYLRRFFKAKKLIE
# Target: TAP-tagged BACE1 (Homo sapiens (Human))
# Assay: TAP purification of tagged bait, LC-MS/MS; novel interactor
row,binding,Binder
1,binds,B1
2,binds,B2
3,binds,B3
4,binds,B4
5,binds,B5
6,binds,B6
7,binds,B7
8,binds,B8
9,binds,B9
10,binds,B10

# Target: TAP-tagged BACE1 (Homo sapiens (Human))
# Assay: TAP purification of tagged bait, LC-MS/MS; listed only under all interactors
row,binding,Binder
1,binds,B11

# Target: TAP-tagged BACE1 (Homo sapiens (Human))
# Assay: TAP purification of tagged bait from SKNBE2 cells, LC-MS/MS
row,binding,Binder
1,binds,B7

# Results are given in words; binding and its absence hold for the method and conditions named. Binding seen in cells or lysates may run through a third protein. Binding can be weak; no strength is given.
